Test results from paper PMC5701936.
These are yes or no findings as the source states them, for the method shown. In cells and extracts the contact can be indirect. Sequences can lack the tags named with a protein.

Biological target: Glutathione-S-Transferase (GST)
Assay: pull-down; co-precipitation of purified His6-SKD1 with GST-SPI-PBW-His6 or GST on resin; proteins dialyzed against Tris-Elution Buffer (100 mM Tris pH 8.0, 150 mM NaCl); detection with anti-His6 antibody; both purified

B1: His6-SKD1 (protein, UniProt Q9ZNT0 1-435)
chain: MYSNFKEQAIEYVKQAVHEDNAGNYNKAFPLYMNALEYFKTHLKYEKNPKIREAITQKFTEYLRRAEEIRAVLDEGGSGPGSNGDAAVATRPKTKPKDGEGGGKDGEDPEQSKLRAGLNSAIVREKPNIKWSDVAGLESAKQALQEAVILPVKFPQFFTGKRRPWRAFLLYGPPGTGKSYLAKAVATEADSTFFSVSSSDLVSKWMGESEKLVSNLFEMARESAPSIIFVDEIDSLCGTRGEGNESEASRRIKTELLVQMQGVGHNDEKVLVLAATNTPYALDQAIRRRFDKRIYIPLPEAKARQHMFKVHLGDTPHNLTEPDFEYLGQKTEGFSGSDVSVCVKDVLFEPVRKTQDAMFFFKSPDGTWMPCGPRHPGAIQTTMQDLATKGLAEKIIPPPITRTDFEKVLARQRPTVSKSDLDVHERFTQEFGEEG
- binding: no binding
